Results are given in words; binding and its absence hold for the method and conditions named. Binding seen in cells or lysates may run through a third protein. Some binding calls cover weakened binding; strength is not graded here.
Target: GFP-SERCA2a (EGFP fused to the N terminus of human SERCA2a) (human) (UniProt P16615)
Experiment: FRET or BRET; competition: fluorescence lifetime FRET in live HEK293 cells stably coexpressing GFP-SERCA2a (donor) and RFP-PLB (acceptor), increasing amounts of unlabeled DWORF construct DNA transiently transfected (6-well plates); E and XDA

Sequences of proteins named here, by UniProt entry; tags and fusion partners are left off. A change or cut given only in a name is not applied to a line headed by its entry. A line that says so, or that is headed by a name, gives the form on record, which may keep a tag or linker.
GFP-SERCA2a (EGFP fused to the N terminus of human SERCA2a) (P16615, form named): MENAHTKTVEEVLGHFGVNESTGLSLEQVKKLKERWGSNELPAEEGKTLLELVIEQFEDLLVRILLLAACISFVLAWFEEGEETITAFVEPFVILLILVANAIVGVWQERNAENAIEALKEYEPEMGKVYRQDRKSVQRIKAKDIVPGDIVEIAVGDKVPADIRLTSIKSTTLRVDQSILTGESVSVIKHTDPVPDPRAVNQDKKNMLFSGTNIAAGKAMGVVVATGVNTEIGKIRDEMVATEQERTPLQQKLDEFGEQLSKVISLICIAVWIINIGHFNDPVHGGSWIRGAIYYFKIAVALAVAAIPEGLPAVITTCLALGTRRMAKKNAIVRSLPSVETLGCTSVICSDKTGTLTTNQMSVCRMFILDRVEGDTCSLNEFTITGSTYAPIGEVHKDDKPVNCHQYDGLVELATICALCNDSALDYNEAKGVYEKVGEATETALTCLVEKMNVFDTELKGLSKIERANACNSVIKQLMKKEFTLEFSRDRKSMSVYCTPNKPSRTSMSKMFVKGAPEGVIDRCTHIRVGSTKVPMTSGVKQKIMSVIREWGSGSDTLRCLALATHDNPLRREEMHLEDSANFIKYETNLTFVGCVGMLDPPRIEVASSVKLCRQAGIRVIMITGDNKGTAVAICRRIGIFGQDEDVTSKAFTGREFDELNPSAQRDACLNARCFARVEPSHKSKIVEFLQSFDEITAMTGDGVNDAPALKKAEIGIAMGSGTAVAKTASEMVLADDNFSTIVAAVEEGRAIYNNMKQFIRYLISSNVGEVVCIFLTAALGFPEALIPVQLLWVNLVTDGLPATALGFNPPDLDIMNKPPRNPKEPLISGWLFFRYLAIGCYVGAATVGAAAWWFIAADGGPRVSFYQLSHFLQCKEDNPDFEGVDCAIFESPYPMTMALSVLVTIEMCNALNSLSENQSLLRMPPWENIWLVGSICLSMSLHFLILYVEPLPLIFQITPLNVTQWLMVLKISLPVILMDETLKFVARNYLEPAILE
UniProt P26678: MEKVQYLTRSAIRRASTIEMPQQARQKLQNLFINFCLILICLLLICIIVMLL

In the case of “RFP-PLB (tagRFP fused to the N terminus of human phospholamban) (from UniProt P26678 1-52)”, the binding is reported as “binds”.

— paper PMC7988493
